# Measured values reported in US20240317871A1.
# Amino acid sequences for entries named in this document (tags omitted). A change or cut given only in a name is not applied to a line headed by its entry. Residues count along the entry.
# UniProt Q92956, residues 39-202: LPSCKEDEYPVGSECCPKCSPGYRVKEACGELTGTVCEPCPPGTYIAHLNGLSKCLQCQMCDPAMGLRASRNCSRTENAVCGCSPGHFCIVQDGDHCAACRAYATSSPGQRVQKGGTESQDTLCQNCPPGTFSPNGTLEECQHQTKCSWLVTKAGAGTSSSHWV
# These are yes or no findings as the source states them, for the method shown. Some binding calls cover weakened binding; strength is not graded here.
# How the values were obtained:
# [1] = biological target: human HVEM recombinant protein (Sino Biological, 10334-H03H) (human) (UniProt Q92956); test: ELISA, coated HVEM, mAb 125 ng/ml
# [2] = biological target: human HVEM recombinant protein (Sino Biological, 10334-H03H) (human) (UniProt Q92956); test: ELISA, coated HVEM
binding [1],binding [2],Binder
binds,,"Ab_090 (H5S14-7A4A) (antibody, V domains shown) VH: EVQLQQSGPELVKPGASVKISCKTSGYTFTEYTMHWVKQSHGKSLEWIGGINPNNGGTINNQKFKGKATLTVDMSSSTAYMELRSLTSEDSAVYYCAGSVVDRYWYFDVWGAGTTVTVSS VL: QIVLTQSPAIMSASPGEKVTISCSASSSVSYMYWYQQKPGSSPKPWIYRTSNLASGVPARFSGSGSGTSYSLTISSMEAEDAATYYCQQYHSYPLTFGAGTKLELK"
,no binding (tested: 125 ng/ml),"Ab_092 (H5S15-15A8A) (antibody, V domains shown) VH: QIQLVQSGPEVKKPGETVKISCKASGYTLTNYGMNWVKQAPGKGLKWVGWINTYTGEPTYADDFKGRFAFSLETSASTAYLQINNLKNEDMATYFCARSFYGSEAYWGQGTLVTVSA VL: QIVLTQSPAIMSASLGEEITLTCSASSSVSFMHWYQQKSGTSPKLLIYSTSNLASGVPSRFSGSGSGTFYSLTISSVEAEDAADYYCHQWSSYLWTFGGGAKLEIK"
,no binding (tested: 125 ng/ml),"Ab_091 (H5S15-10A11A) (antibody, V domains shown) VH: DVQLVESGGGLVQPGGSRKLSCAASGFTFSSFGMHWIRQAPEKGLEWVASISSGSSTIYFADTVKGRFTISRDNPKNTLFLQMTSLRSEDTAMYYCARGAYGNFAWFPYWGQGTLVTVSA VL: DVVMTQTPLSLPVSLGDQASVSCRSSQSLVHSNGNTYLHWYLQKPGQSPKLLIYKVSNRFSGVPDRFIGSGSGTDFTLKISRVEAEDLGVYFCSQSTHVPTFGSGTKLEVK"
